The whole screen tested about 330,000 compounds, of which about 7,700 (2.3%) were called active. The inconclusive results got no clear call from the source; some entries with a clear call stand among them for comparison. The call rests on the fitted dose curve; in most records, active means well fitted inhibition curve with a large enough effect; inconclusive means small, poorly fitted or top-dose-only effect, or effect the other way; inactive means flat fitted curve, though single readings scatter. Potencies of inconclusive entries are doubtful fits and often do not repeat.
test: qHTS screen for small molecules that inhibit ELG1-dependent DNA repair in human embryonic kidney (HEK293T) cells expressing luciferase-tagged ELG1; conditions: HEK293T ELG1-luciferase reporter, luminescence, 16 h, DNA damage induced by 5-fluorouridine; activity change, negative = inhibition: at 46.1 µM (top of the series); further: nearly all actives have a fitted effect of over 55% in size
Outline: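 Cells (2,000 per well) received 5-fluorouridine plus test compound or DMSO and were incubated 16 hr at 37 °C, 5% CO2. Luciferase activity was read by luminescence 30 min after ONE-Glo addition; signal suppression marked inhibition of damage-induced ELG1 function.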
On the % scale 0 is the no-effect control and ±100 the full control effect; potency means the concentration at half of the fitted maximal effect.

For `CCOC(=O)c1sc2nc(NC(=O)C(C)(C)C)sc2c1C`, which Potency is on record?
Its Potency is inconclusive: 0.92 µM [activator, partial curve].

With `Cc1cc(C)c2[nH]c(=O)c(CN(CC3CCCO3)C(=O)C3CCCO3)cc2c1` (centres undefined) as the compound, how does the Potency read?
Its Potency is inconclusive: 29.1 µM [activator, partial curve, poor fit].

With `CC(=O)Oc1ccc(C(=O)NC(C)CCc2ccccc2)cc1` (centres undefined) as the compound, how does the Potency read?
Its Potency is inconclusive: 3.66 µM [activator, single point].

For `CCN(CC)S(=O)(=O)c1cccc(-c2nnc(SCCCC(=O)c3ccccc3)o2)c1`, which Potency is on record?
Its Potency is inconclusive: 29.1 µM [inhibitor, single point].

With `COc1cccc(/C=N/NC(=O)c2ccncc2)c1OC(=O)c1ccc(Br)cc1` as the compound, how does the Potency read?
The Potency was inconclusive: 14.6 µM [inhibitor, partial curve].

For `COC(=O)c1ccc(OCC(=O)Nc2ccccc2C(=O)NC2CC2)cc1`, which Potency is on record?
The Potency was inconclusive: 11.2 µM [inhibitor, partial curve].

Which Potency does the source give for `CCc1ccccc1NC(=O)CN(C)C(=O)CSc1nnc(Nc2cccc(C)c2)s1` here?
The Potency was inconclusive: 16.4 µM [inhibitor, single point].

Which Potency does the source give for `COc1ccccc1C1CC(c2ccc(NS(C)(=O)=O)cc2)=NN1C(=O)c1ccccc1` (centres undefined) here?
Its Potency is inconclusive: 18.3 µM [inhibitor, single point].

Which Potency does the source give for `O=[N+]([O-])c1ccc(Nc2nc(N/N=C/c3cccc(F)c3)nc(N3CCCC3)n2)cc1` here?
Its Potency is active: 4.61 µM.

For `COC(=O)C(C)N1CCC(=O)c2ccccc2S1(=O)=O` (centres undefined), which “activity change, negative = inhibition” value is on record?
Its value is inactive: 0.0711%.

With `CC(C)(C)C1CCCCC1NC(=O)c1ccncc1` (centres undefined) as the compound, how does the “activity change, negative = inhibition” value read?
The value was inactive: -0.67%.

Which “activity change, negative = inhibition” value does the source give for `Cc1cc(C(=O)NC(=S)Nc2ccccc2N2CCCC2)ccc1[N+](=O)[O-]` here?
Its value is inactive: -4.59%.

For `CN(C(=O)c1cccc(NC(=O)Cc2cccc([N+](=O)[O-])c2)c1)C1CCC1`, which Potency is on record?
The Potency was inconclusive: 29.1 µM [inhibitor, single point].

For `c1csc(-c2nc3nc4ccccc4nc3n2Cc2ccc3c(c2)OCO3)c1`, which Potency is on record?
The Potency was inconclusive: 29.1 µM [inhibitor, single point].

Which “activity change, negative = inhibition” value does the source give for `Cc1cccn2c(=O)nc(SCC(=O)NC3CCCCC3)nc12` here?
The value was inactive: 17.4%.

For `COc1ccc(-c2c(-c3ccsc3)oc(=O)c3cc(OC)c(OC)cc23)cc1`, which Potency is on record?
Its Potency is inconclusive: 9.2 µM [inhibitor, partial curve].

For `CCOC(Cn1c(SCC(=O)Nc2cc(C)on2)nc2ccccc2c1=O)OCC`, which “activity change, negative = inhibition” value is on record?
Its value is inactive: -0.328%.

For `CNc1nc(-c2ccccc2)[n+](-c2ccc(C)cc2)s1`, which “activity change, negative = inhibition” value is on record?
Its value is inactive: -6.81%.

With `Cc1csc(NC(=O)c2cc([N+](=O)[O-])cc([N+](=O)[O-])c2)n1` as the compound, how does the “activity change, negative = inhibition” value read?
The value was inactive: -1.45%.

With `CCc1nnc(NC(=O)Cc2c[nH]c3ccccc23)s1` as the compound, how does the Potency read?
The Potency was inconclusive: 23.1 µM [inhibitor, single point].

With `Cc1noc(NS(=O)(=O)c2ccc(NC(=O)CSc3nc4c(cc3C#N)CCCC4)cc2)c1C` as the compound, how does the “activity change, negative = inhibition” value read?
The value was inactive: 8.72%.

Which Potency does the source give for `CCOC(=O)Cc1csc(NC(=O)/C=C/c2ccc(OC)cc2)n1` here?
The Potency was inconclusive: 29.1 µM [inhibitor, single point].

Which Potency does the source give for `CCC(=O)Nc1ccc(C(=O)CSc2nnc(-c3ccccc3F)n2C2CC2)cc1` here?
The Potency was inconclusive: 32.6 µM [activator, partial curve, poor fit].

With `Cc1ccc(NC(=S)NCc2ccc3c(c2)cc(C)n3C)c(C)c1` as the compound, how does the Potency read?
Its Potency is inconclusive: 16.4 µM [inhibitor, partial curve, poor fit].

For `COc1ccc(Cl)cc1C(=O)NNC(=O)CCNS(=O)(=O)c1ccccc1`, which “activity change, negative = inhibition” value is on record?
The value was inactive: -2.24%.

For `O=C(Nc1nnc(S(=O)(=O)N2CCOCC2)s1)c1ccc(Cl)cc1`, which “activity change, negative = inhibition” value is on record?
Its value is inactive: -5.66%.

Which Potency does the source give for `CCOC(=O)c1ccc2c(c1)nc(SC/C(O)=C(\C#N)c1nc3ccccc3[nH]1)n2CC` here?
The Potency was inconclusive: 25.9 µM [activator, single point].

For `CCCn1c(CN(Cc2ccccc2)Cc2ccccc2)nc2c1c(=O)n(C)c(=O)n2C`, which Potency is on record?
The Potency was inconclusive: 18.4 µM [inhibitor, single point].

With `CSc1c(SCc2ccccc2)cnn(-c2ccccc2)c1=O` as the compound, how does the “activity change, negative = inhibition” value read?
Its value is inactive: 17%.

Which “activity change, negative = inhibition” value does the source give for `N/C(=N/OCC(=O)Nc1cccc2ccccc12)c1nonc1N` here?
Its value is inactive: 2.4%.

For `COc1ccc(CN2CCC(C(=O)Nc3ccc(Oc4cccnc4)cc3)CC2)c(C)c1C`, which “activity change, negative = inhibition” value is on record?
The value was inactive: -15.8%.

Which Potency does the source give for `COc1ccccc1N1CCN(C(=O)CSc2nc3ccccc3[nH]2)CC1` here?
The Potency was inconclusive: 25.9 µM [inhibitor, single point].

With `CCOC(=O)c1c(C)oc(NC(=O)COc2ccc(Cl)cc2C)c1C#N` as the compound, how does the Potency read?
Its Potency is active: 20.6 µM.

Which “activity change, negative = inhibition” value does the source give for `COC(=O)CSc1[nH]c2ccccc2c1[N+](=O)[O-]` here?
The value was inactive: 11.5%.

For `NS(=O)(=O)c1cc(C(=O)OCC(=O)Nc2ccccc2[N+](=O)[O-])ccc1Cl`, which “activity change, negative = inhibition” value is on record?
Its value is inactive: 7.86%.

With `O=C(N=C1SC2CS(=O)(=O)CC2N1c1ccc(Cl)cc1Cl)C1CC1` (centres undefined) as the compound, how does the “activity change, negative = inhibition” value read?
The value was inactive: 13.3%.

With `COc1ccc(O)c(/C=N\NC(=O)CCn2nnc3ccccc32)c1` as the compound, how does the Potency read?
Its Potency is inconclusive: 29.1 µM [inhibitor, single point].

With `Cc1cc(C)c(NC(=O)NC(=O)c2cccc(F)c2)c(C)n1` as the compound, how does the Potency read?
The Potency was inconclusive: 16.4 µM [activator, partial curve].

Which “activity change, negative = inhibition” value does the source give for `COc1ccc(-c2cc(C(=O)N3CCN(C(c4ccccc4)c4ccccc4)CC3)no2)cc1` here?
The value was inactive: -3.04%.

With `COc1ccc(-c2nc(NC(C)=O)sc2-c2ccc(OC)cc2)cc1` as the compound, how does the Potency read?
The Potency was inconclusive: 25.9 µM [inhibitor, single point].

Which Potency does the source give for `Cc1ccc(C2N=C(N)Nc3nc4ccccc4n32)cc1` (centres undefined) here?
Its Potency is inconclusive: 23.1 µM [activator, single point].

With `Cc1c(C)c2ccc(OCC(=O)c3ccccc3)cc2oc1=O` as the compound, how does the Potency read?
Its Potency is inconclusive: 16.4 µM [activator, partial curve].

Which Potency does the source give for `COc1cc(C(=O)OCC(=O)NC2CCCCC2)cc(OC)c1OC` here?
The Potency was inconclusive: 14.6 µM [inhibitor, partial curve, poor fit].

For `COc1ccc(N(Cc2cc3cccc(C)c3[nH]c2=O)S(C)(=O)=O)cc1`, which Potency is on record?
Its Potency is inconclusive: 20.6 µM [inhibitor, partial curve, poor fit].

For `O=C(Nc1ccc(S(=O)(=O)C(F)F)cc1)c1ccc2c(=O)n3c(nc2c1)CCC3`, which Potency is on record?
Its Potency is inconclusive: 16.4 µM [inhibitor, single point].

Which Potency does the source give for `COc1ccc2oc(C(=O)OCC(=O)N3C(C)CCCC3C)c(C)c2c1` (centres undefined) here?
Its Potency is inconclusive: 16.4 µM [activator, partial curve, poor fit].

With `COCCNC(=S)Nc1ccc2nc(N3CCCC3)cc(C)c2c1` as the compound, how does the “activity change, negative = inhibition” value read?
Its value is inactive: -0.161%.

With `COCCCn1c(SCC(=O)OC2CCCCC2)nnc1-c1ccco1` as the compound, how does the “activity change, negative = inhibition” value read?
Its value is inactive: 23.5%.

Which Potency does the source give for `COc1ccccc1Nc1ncnc2c1oc1ccccc12` here?
Its Potency is inconclusive: 20.6 µM [activator, partial curve].

Which Potency does the source give for `COc1cccc2sc3ccc(C#CC4(O)CCCCC4)cc3c(=O)c12` here?
The Potency was inconclusive: 5.17 µM [activator, partial curve].

With `Cc1nc2c(c(=O)n1Cc1ccco1)c1nc3ccccc3nc1n2Cc1ccccc1` as the compound, how does the Potency read?
Its Potency is inconclusive: 11.6 µM [inhibitor, partial curve].

Which Potency does the source give for `Cc1ccc(-c2cc(C(F)F)n3ncc(C(=O)N4CCc5ccccc54)c3n2)cc1` here?
Its Potency is active: 20.6 µM.

With `COc1ccc(CNC(=O)Cn2c(=O)oc3ccccc32)cc1OC` as the compound, how does the “activity change, negative = inhibition” value read?
The value was inactive: 6.39%.

For `CCOCCn1c(SCc2ccc(C)cc2)nc2c1c(=O)[nH]c(=O)n2C`, which Potency is on record?
The Potency was inconclusive: 3.66 µM [activator, single point].

With `C(=N\Nc1ccccc1)/c1nc2ccccc2s1` as the compound, how does the Potency read?
Its Potency is inconclusive: 0.517 µM [activator, full curve].

Which Potency does the source give for `COc1ccc2[nH]c(C(=O)O)c(CCN3C(=O)c4ccc(C(=O)O)cc4C3=O)c2c1` here?
The Potency was inconclusive: 16.4 µM [activator, single point].

With `CCOC(=O)c1c(NC(=O)CSc2cccc[n+]2[O-])sc(C(=O)Nc2ccccc2)c1C` as the compound, how does the Potency read?
The Potency was inconclusive: 5.17 µM [activator, full curve, poor fit].

With `Cc1ccc(OCC(=O)NNC(=O)CCc2ccccc2)cc1` as the compound, how does the Potency read?
Its Potency is inconclusive: 17.8 µM [activator, single point].

Which “activity change, negative = inhibition” value does the source give for `Cc1c(C(=O)Nc2ccccc2C(=O)N2CCOCC2)cccc1[N+](=O)[O-]` here?
The value was inactive: 8.53%.

With `C[C@H](CO)N1C[C@H](C)[C@@H](CN(C)Cc2ccc(Oc3ccccc3)cc2)Oc2c(NC(=O)C3CC3)cccc2C1=O` as the compound, how does the Potency read?
The Potency was inconclusive: 18.3 µM [inhibitor, partial curve, poor fit].

Which Potency does the source give for `COc1ccc(-c2nsc(SCC(=O)NCC3CCCO3)n2)cc1` (centres undefined) here?
The Potency was inconclusive: 0.82 µM [activator, partial curve].

For `COc1ccc(C(C(=O)NC2CCCCC2)N(C(=O)c2sc(C)nc2C)c2ccccc2C)cc1` (centres undefined), which Potency is on record?
Its Potency is inconclusive: 20.6 µM [inhibitor, single point].

With `CCOc1ccc(/C=N\NC(=O)c2c(C)nc3cc(C)ccn23)cc1` as the compound, how does the Potency read?
Its Potency is inconclusive: 0.112 µM [inhibitor, full curve, poor fit].

With `O=S(=O)(NCc1ccccc1)c1ccc(S(=O)(=O)N2CCCC2)cc1` as the compound, how does the Potency read?
The Potency was inconclusive: 25.9 µM [inhibitor, single point].

Which Potency does the source give for `CCOC(=O)c1cc2c(C)n(-c3ccc(C)cc3)c(C)c2ccc1=O` here?
Its Potency is inconclusive: 3.66 µM [activator, full curve].

With `CC(=O)N1CCc2[nH]c3ccccc3c2C1` as the compound, how does the Potency read?
The Potency was inconclusive: 18.4 µM [activator, single point].

Which “activity change, negative = inhibition” value does the source give for `O=C(O)c1cc(-c2ccc(/C=C3\NC(=O)N(c4ccccc4)C3=O)o2)ccc1Cl` here?
Its value is inactive: 26.8%.

With `COC(=O)[C@]1(CC(C)C)N[C@H](c2ccc(-c3ccccc3)cc2)[C@@H]2C(=O)N(C)C(=O)[C@@H]21` as the compound, how does the “activity change, negative = inhibition” value read?
Its value is inactive: -8.1%.

With `C[C@@]12C(=O)NCC(=O)N1[C@@H]1c3cc(Br)ccc3OC[C@@H]1[C@@H]2c1ccccc1` as the compound, how does the Potency read?
Its Potency is inconclusive: 10.3 µM [inhibitor, partial curve].

Source: PubChem BioAssay AID504467 (National Center for Advancing Translational Sciences (NCATS), 2011)
